Laboratory results: publication PMC12670160, “A drug-repurposing screen of FDA- and EMA-approved drugs identifies two NF-κB inhibitors active against eumycetoma” (Journal of Antimicrobial Chemotherapy, 2025)
Structures can show the parent of a compound that is named as a salt. In all, about 5,300 compounds went through this assay and about 130 (2.5%) showed an effect of 50% or more. This is one part of the list.

Each compound was assayed on M. mycetomatis strain mm55. Conditions: primary screen, metabolic activity vs growth control; 96 h, 2 µM; inhibitor.
With `COCCCOc1ccnc(C[S+]([O-])c2nc3ccccc3[nH]2)c1C` (stereo not shown) [ONC0000724, rabeprazole sodium] the “% viability” value was 77.4%.
`Cc1cc(Nc2ncc(Cl)c(Nc3ccccc3S(=O)(=O)C(C)C)n2)c(OC(C)C)cc1C1CCNCC1` [ONC0002094, ceritinib] was tested, and the “% viability” value was 66.29%.
`C#C[C@]1(O)CC[C@H]2[C@@H]3CCC4=CC(=NO)CC[C@@H]4[C@H]3CC[C@@]21CC` (mixture of isomers) [ONC0000953, norgestimate metabolite norelgestromin] was tested, and the “% viability” value was 67.65%.
For `O[C@H]1CC[C@H](Nc2nc(-c3ccccc3)nc3[nH]ccc23)CC1` [ONC0002724, slv320], the “% viability” value was 89.36%.
`CCN(CC)CCCN(c1ccccc1)C1Cc2ccccc2C1` [ONC0005460, aprindine] was tested, and the “% viability” value was 71.07%.
With `CS(=O)(=O)O.Cc1ncc(NC(=O)c2ccc(CN3CCN(C)CC3)c(C(F)(F)F)c2)cc1Nc1nccc(-c2cccnc2)n1` [ONC0000733, flumatinib mesylate] the “% viability” value was 70.92%.
For `NS(=O)(=O)NCCNc1nonc1C(=NO)Nc1ccc(F)c(Br)c1` [ONC0005250, epacadostat incb024360], the “% viability” value was 130.3%.
With `N[C@@H](CCNCc1ccc(Cl)cc1)C(=O)N1CCCCC1` [ONC0001425, uamc00039] the “% viability” value was 60.53%.
With `CC1CCC(O)C/C1=C\C=C1/CCCC2(C)C1CCC2C(C)/C=C/C(C)C(C)C` (stereo not shown) [ONC0003794, dihydrotachysterol] the “% viability” value was 64.86%.
`C[C@@H](Oc1cc(-c2cnn(C3CCNCC3)c2)cnc1N)c1c(Cl)ccc(F)c1Cl` [ONC0004739, crizotinib pf02341066] was tested, and the “% viability” value was 108%.
With `CC(Cc1ccc(O)c(O)c1)C(C)Cc1ccc(O)c(O)c1` (stereo not shown) [ONC0003497, nordihydroguaiaretic acid] the “% viability” value was 60.17%.
In the case of `C[C@@H](C(=O)O)c1ccc(-c2ccccc2)c(F)c1` [ONC0001617, flurizan], the “% viability” value is reported as 81.17%.
For `Cc1cc(OI)c(C(C)C)cc1-c1cc(C(C)C)c(OI)cc1C` [ONC0002733, thymol iodide], the “% viability” value was 87.5%.
For `CC(=O)OCC(=O)[C@@]12OC3(CCCC3)O[C@@H]1C[C@H]1[C@@H]3CCC4=CC(=O)C=C[C@]4(C)[C@@]3(F)[C@@H](O)C[C@@]12C` [ONC0002738, amcinonide], the “% viability” value was 104%.
`Cc1nc(N(C)C(=O)Cc2ccc(-c3ccccn3)cc2)sc1S(N)(=O)=O` [ONC0005353, pritelivir] was tested, and the “% viability” value was 121.5%.
`C/C(=N\NC(=N)N)c1cc(NC(=O)CCCCCCCCC(=O)Nc2cc(/C(C)=N/NC(=N)N)cc(/C(C)=N/NC(=N)N)c2)cc(/C(C)=N/NC(=N)N)c1` [ONC0003851, semapimod] was tested, and the “% viability” value was 78.92%.
`C/C(O)=C(\C#N)C(=O)Nc1ccc(C(F)(F)F)cc1` [ONC0000878, teriflunomide] was tested, and the “% viability” value was 64.9%.
For `Cc1oc(=O)oc1CN1CCN(c2cc3c(cc2F)c(=O)c(C(=O)O)c2n3C(C)S2)CC1` (stereo not shown) [ONC0004205, prulifloxacin], the “% viability” value was 94.79%.
For `COc1nc(C)cnc1NS(=O)(=O)c1cccnc1-c1ccc(-c2nnco2)cc1` [ONC0004889, zibotentan zd4054], the “% viability” value was 118.1%.
With `O=C(CC1CC(c2ccc(F)cc2F)=NO1)N1CCOCC1` (stereo not shown) [ONC0000237, cpsi1306] the “% viability” value was 89.07%.
`CNC(=O)Oc1cccc2ccccc12` [ONC0004309, carbaril] was tested, and the “% viability” value was 58.5%.
For `C/C(=C\CNc1ncnc2[nH]cnc12)CO` [ONC0003835, zeatin], the “% viability” value was 65.76%.
In the case of `O=C(NCc1ccc2c(c1)OCO2)c1c(Cl)cccc1Cl` [ONC0001694, alda1], the “% viability” value is reported as 71.27%.
For `Cn1cc(C2=C(c3cn(CCCSC(=N)N)c4ccccc34)C(=O)NC2=O)c2ccccc21` [ONC0002507, bisindolylmaleimideix], the “% viability” value was 68.21%.
For `C[C@@H]1O[C@@H](O[C@H]2[C@H](Oc3cc(O)c4c(c3)O[C@H](c3ccc(O)cc3)CC4=O)O[C@H](CO)[C@@H](O)[C@@H]2O)[C@H](O)[C@H](O)[C@H]1O` [ONC0004654, naringin naringoside], the “% viability” value was 64.69%.
With `N[C@@H](CC(=O)N1CCn2c(nnc2C(F)(F)F)C1)Cc1cc(F)c(F)cc1F` [ONC0004045, sitagliptin phosphate] the “% viability” value was 93.31%.
For `CCN1CCCC1=O` [ONC0002753, 1ethyl2pyrrolidone], the “% viability” value was 114.4%.
`COc1ccc(CC(=O)NC(N/C(=N/C#N)Nc2cccc3ncccc23)C(C)(C)C)cc1OC` (stereo not shown) [ONC0001613, a740003] was tested, and the “% viability” value was 77.73%.
For `NS(=O)(=O)Oc1ccc2c3c(c(=O)oc2c1)CCCCC3` [ONC0005449, irosustat], the “% viability” value was 97.6%.
With `CCN(CC)CC1CCCCN1CC(=O)N1c2ccccc2C(=O)Nc2cccnc21` (stereo not shown) [ONC0001676, otenzepad] the “% viability” value was 55.9%.
With `CCN1CCN(C(=O)Cc2ccc(Nc3ncc(F)c(Nc4ccc(C(=O)Nc5ccccc5Cl)cc4)n3)cc2)CC1` [ONC0002566, auroraainhibitori] the “% viability” value was 68.8%.
For `N=C(Nc1ccccc1)Nc1ccccc1` [ONC0003576, diphenylguanidine], the “% viability” value was 111.9%.
For `CCC(C/C=C/c1ccccc1)(c1ccccc1)N(C)CC1CC1` (stereo not shown) [ONC0003075, igmesine], the “% viability” value was 61.21%.
`NC(=O)Nc1sc(-c2ccc(F)cc2)cc1C(N)=O` [ONC0001263, tpca1] was tested, and the “% viability” value was 73.02%.
In the case of `CC#CCC(C)[C@H](O)/C=C/[C@@H]1[C@H]2C/C(=C/CCCC(=O)O)C[C@H]2C[C@H]1O` (stereo partly shown) [ONC0001765, iloprost], the “% viability” value is reported as 85.71%.
With `CC1(C)C(=O)N(CCN2CCC(C(=O)c3ccc(F)cc3)CC2)c2ccccc21` [ONC0000898, ly310762] the “% viability” value was 86.5%.
`CCCN(CCC)CCc1ccc(OC)c(OCCc2ccccc2)c1` [ONC0000866, ne100] was tested, and the “% viability” value was 62.29%.
`CC(C)(C)OC(=O)N[C@H]1CCCCC/C=C\[C@@H]2C[C@@]2(C(=O)NS(=O)(=O)C2CC2)NC(=O)[C@@H]2C[C@@H](OC(=O)N3Cc4cccc(F)c4C3)CN2C1=O` [ONC0004588, danoprevir itmn191] was tested, and the “% viability” value was 78.54%.
`O=C(Nc1ccccc1)OCC(CN1CCCCC1)OC(=O)Nc1ccccc1` (stereo not shown) [ONC0004024, diperodon hydrochloride] was tested, and the “% viability” value was 82.88%.
For `COc1cc2c(cc1OC)-c1c(C)c3ccc(OC)c(OC)c3c[n+]1CC2` [ONC0000781, dehydrocorydaline chloride], the “% viability” value was 81.79%.
For `CN1C2CCC1CC(OC(c1ccccc1)c1ccc(Cl)cc1)C2` (stereo not shown) [ONC0001885, 3cpmt], the “% viability” value was 93.95%.
For `C[C@H](CCC(=O)O)[C@H]1CC[C@H]2[C@@H]3C[C@H](O)[C@@H]4C[C@H](O)CC[C@]4(C)[C@H]3CC[C@]12C` [ONC0004931, hyodeoxycholic acid hdca], the “% viability” value was 102%.
With `CCn1cnc(C(=O)NC)c1C(=O)NC` [ONC0001110, etimizol] the “% viability” value was 66.67%.
In the case of `O=C1NN(C(=O)Nc2ccc(Br)cc2)[C@@H](c2ccccc2)[C@@H]1c1ccccc1` [ONC0002551, ly288513], the “% viability” value is reported as 75.36%.
In the case of `CO/N=C(\C(=O)N[C@@H]1C(=O)N2C(C(=O)O)=C(CSC(=O)c3ccco3)CS[C@H]12)c1csc(N)n1` [ONC0004296, ceftiofur hydrochloride], the “% viability” value is reported as 90.25%.
`N[C@@H]1CCN(O)C1=O` [ONC0004324, ha966r] was tested, and the “% viability” value was 106.3%.
In the case of `CN(C)C(=O)N[C@H]1CC[C@H](CCN2CCN(c3cccc(Cl)c3Cl)CC2)CC1` [ONC0001226, cariprazine], the “% viability” value is reported as 115%.
With `CC(=O)Nc1ccc(OCC(O)CNC(C)C)cc1` (stereo not shown) [ONC0002176, practolol] the “% viability” value was 73.91%.
With `COc1ccnc2[nH]cc(C(=O)C(=O)N3CCN(C(=O)c4ccccc4)C[C@H]3C)c12` [ONC0005222, bms806 bms 378806] the “% viability” value was 134.6%.
`CCCC(=O)Nc1ccc(OCC(O)CNC(C)C)c(C(C)=O)c1` (stereo not shown) [ONC0003369, acebutolol hydrochloride] was tested, and the “% viability” value was 44.26%.
For `C[C@@H]1O[C@@H](OC[C@H]2O[C@@H](Oc3c(-c4ccc(O)c(O)c4)oc4cc(O)cc(O)c4c3=O)[C@H](O)[C@@H](O)[C@@H]2O)[C@H](O)[C@H](O)[C@H]1O` [ONC0003327, rutin], the “% viability” value was 87%.
In the case of `CC(O)(CS(=O)(=O)c1ccc(F)cc1)C(=O)Nc1ccc(C#N)c(C(F)(F)F)c1` (stereo not shown) [ONC0004751, bicalutamide casodex], the “% viability” value is reported as 86.52%.
In the case of `CCN(CC)CCNC(=O)c1ccc(I)cc1` [ONC0002582, ibza], the “% viability” value is reported as 67.62%.
With `CCC(=O)O[C@@H](OP(=O)(CCCCc1ccccc1)CC(=O)N1C[C@H](C2CCCCC2)C[C@H]1C(=O)O)C(C)C` (stereo partly shown) [ONC0005007, fosinopril sodium monopril] the “% viability” value was 152.1%.
With `C=CC(C)(O)CCC=C(C)C` (stereo not shown) [ONC0002978, linalool] the “% viability” value was 159.2%.
With `CC(=O)O[C@]1(C(C)=O)CC[C@H]2[C@@H]3C=C(C)C4=CC(=O)CC[C@]4(C)[C@H]3CC[C@@]21C` [ONC0000478, megestrol acetate] the “% viability” value was 64.15%.
`CN(C)C(=O)c1cc2cnc(Nc3ccc(N4CCNCC4)cn3)nc2n1C1CCCC1` [ONC0005183, ribociclib lee011] was tested, and the “% viability” value was 120.1%.
In the case of `NC[C@H]1O[C@H](O[C@H]2[C@H](O)[C@@H](O[C@H]3O[C@H](CO)[C@@H](O)[C@H](N)[C@H]3O)[C@H](N)C[C@@H]2N)[C@H](N)[C@@H](O)[C@@H]1O` [ONC0003920, bekanamycin sulfate], the “% viability” value is reported as 71.98%.
